Results are given in words; binding and its absence hold for the method and conditions named. Binding seen in cells or lysates may run through a third protein. For some assays here: Sequences can lack the tags named with a protein.
What was measured:
[1] = target: Myc-tagged cyclin D1, wild type (UniProt P24385); assay: co-IP; exogenous Co-IP: HEK293T or GC cells transfected for 48 h; IP lysis buffer 50 mM Tris-HCl pH 8.0, 150 mM NaCl, 10 mM KCl, 1.5 mM MgCl2, 0.5% NP-40, 10% glycerol, 1 mM EDTA; anti-Flag or anti-Myc antibody, Protein A/G magnetic beads overnight at 4 °C; immunoblot
[2] = target: T1, Flag-tagged USP13 (ubiquitin-specific protease 13), wild type (UniProt Q92995); assay: as above
T1 sequence: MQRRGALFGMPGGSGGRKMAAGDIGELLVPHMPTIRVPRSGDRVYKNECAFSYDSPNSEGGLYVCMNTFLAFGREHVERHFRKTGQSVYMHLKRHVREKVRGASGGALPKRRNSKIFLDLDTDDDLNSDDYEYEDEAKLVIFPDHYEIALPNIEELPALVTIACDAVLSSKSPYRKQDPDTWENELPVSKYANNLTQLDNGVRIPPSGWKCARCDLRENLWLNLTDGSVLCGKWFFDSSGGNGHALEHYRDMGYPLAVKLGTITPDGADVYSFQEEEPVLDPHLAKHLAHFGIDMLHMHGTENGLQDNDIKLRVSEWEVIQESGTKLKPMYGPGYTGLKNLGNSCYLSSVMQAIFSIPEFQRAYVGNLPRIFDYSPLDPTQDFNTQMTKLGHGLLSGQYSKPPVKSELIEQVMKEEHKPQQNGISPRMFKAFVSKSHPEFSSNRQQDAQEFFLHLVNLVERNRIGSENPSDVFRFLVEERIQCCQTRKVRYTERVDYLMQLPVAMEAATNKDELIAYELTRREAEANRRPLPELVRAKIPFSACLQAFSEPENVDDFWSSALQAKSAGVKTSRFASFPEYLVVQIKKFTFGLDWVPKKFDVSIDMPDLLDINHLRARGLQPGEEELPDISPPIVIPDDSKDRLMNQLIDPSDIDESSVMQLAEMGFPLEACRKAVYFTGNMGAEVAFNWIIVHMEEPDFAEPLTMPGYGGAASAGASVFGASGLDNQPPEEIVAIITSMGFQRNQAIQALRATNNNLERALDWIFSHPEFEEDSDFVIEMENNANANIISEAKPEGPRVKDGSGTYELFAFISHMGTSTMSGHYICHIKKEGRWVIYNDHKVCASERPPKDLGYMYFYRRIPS

Protein sequences, listed by entry. Tags and fused reporters are not part of them.
UniProt P24385: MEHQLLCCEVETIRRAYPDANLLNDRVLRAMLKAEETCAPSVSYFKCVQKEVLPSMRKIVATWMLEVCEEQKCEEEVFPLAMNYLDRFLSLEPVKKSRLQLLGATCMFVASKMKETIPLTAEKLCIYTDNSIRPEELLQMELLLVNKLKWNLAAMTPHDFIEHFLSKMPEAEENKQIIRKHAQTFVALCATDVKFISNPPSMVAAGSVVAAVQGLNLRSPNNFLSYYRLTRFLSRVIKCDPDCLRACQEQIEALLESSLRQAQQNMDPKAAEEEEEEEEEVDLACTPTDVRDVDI

Substance	binding [1]	binding [2]
Flag-tagged USP13 truncated mutant containing the USP domain (from UniProt Q92995) (domain or fragment)	no binding	–
cyclin D1 C-terminal deletion mutant (domain or fragment)	–	no binding

Reference: paper PMC10348911
